# Results from cells or extracts need not show a direct contact. For part of these data: Tags and fusion partners may be left off the protein sequences shown. Construct, isoform or probe ends are uncertain for at least one entry. For part of these data: Negatives hold for the conditions tested.
# Tests used:
# [1] = target: T1, PTK7 (on CCRF-CEM cells) (Homo sapiens) (UniProt Q13308); assay: binding assay; conditions: 5'-biotin, protein on the cell surface, protein details: native membrane protein on CCRF-CEM cells (ATCC), label: biotin, single-stranded DNA
# T1 sequence (looked up, limits assumed): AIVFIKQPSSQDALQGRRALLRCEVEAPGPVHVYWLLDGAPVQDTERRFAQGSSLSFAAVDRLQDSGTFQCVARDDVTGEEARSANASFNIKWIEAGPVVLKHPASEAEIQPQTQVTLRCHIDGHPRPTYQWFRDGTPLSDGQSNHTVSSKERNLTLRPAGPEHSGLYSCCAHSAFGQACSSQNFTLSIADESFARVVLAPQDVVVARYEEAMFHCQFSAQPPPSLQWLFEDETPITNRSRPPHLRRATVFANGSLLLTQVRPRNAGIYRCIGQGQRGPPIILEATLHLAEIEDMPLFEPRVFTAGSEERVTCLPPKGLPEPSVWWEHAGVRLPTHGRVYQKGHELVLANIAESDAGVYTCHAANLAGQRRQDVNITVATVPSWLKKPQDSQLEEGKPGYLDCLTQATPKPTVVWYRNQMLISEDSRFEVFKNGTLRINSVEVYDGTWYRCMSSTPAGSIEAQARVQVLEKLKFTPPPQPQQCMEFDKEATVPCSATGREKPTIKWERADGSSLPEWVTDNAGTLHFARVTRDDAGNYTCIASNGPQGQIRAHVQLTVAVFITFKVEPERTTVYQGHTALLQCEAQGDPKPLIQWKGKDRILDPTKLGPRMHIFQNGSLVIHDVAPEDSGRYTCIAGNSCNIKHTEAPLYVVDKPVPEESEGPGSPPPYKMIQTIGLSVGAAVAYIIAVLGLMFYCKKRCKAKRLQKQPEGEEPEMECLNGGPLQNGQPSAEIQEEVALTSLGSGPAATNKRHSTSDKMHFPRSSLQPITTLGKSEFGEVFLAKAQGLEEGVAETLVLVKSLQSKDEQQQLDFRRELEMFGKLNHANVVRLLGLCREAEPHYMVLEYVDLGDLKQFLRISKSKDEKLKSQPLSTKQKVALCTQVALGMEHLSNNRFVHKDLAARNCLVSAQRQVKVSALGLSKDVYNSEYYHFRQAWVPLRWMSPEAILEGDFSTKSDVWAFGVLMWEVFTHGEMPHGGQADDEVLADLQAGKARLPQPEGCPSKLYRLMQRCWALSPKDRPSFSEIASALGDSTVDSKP
# [2] = system: Toledo cell surface (sgc8c non-target cells) (Homo sapiens); assay: binding assay; conditions: 5'-biotin; Toledo control cells removed by D-PBS wash; 8 non-target cells among a few hundred CCRF-CEM after 10 samples; protein on the cell surface; protein details: Toledo diffuse large-cell lymphoma cells (ATCC); label: biotin; single-stranded DNA
sequence,measurement,setting,value
TTTTTTTTTATCTAACTGCTGCGCCGCCGGGAAAATACTGTACGGTTAGA [sgc8c biotinylated with polyT(9) spacer],binding result,"[1]; CCRF-CEM cell capture on aptamer-functionalized microchamber, D-PBS, room temperature, about 80% of cells released at 48 C, 5 uL/min, 2 min",binds
same,Kd,"[1]; CITED (no measurement described), stated for sgc8c aptamer, target CCRF-CEM cells",0.78 nM
same,binding result,[2],no binding

# From patent publication US20140296095
